These are yes or no findings as the source states them, for the method shown. Some entries that bind do so weakly or less than the wild type.
Columns and labels:
Assay in all cases: SPR, mAb captured on Protein A chip, 37 C
[1] = target: Cynomolgus monkey TrkA Extracellular Domain (59-434) (cynomolgus monkey)
[2] = target: Mouse TrkA Extracellular Domain (33-417 with 396-401 deletion) (mouse) (UniProt Q3UFB7)
[3] = target: Rabbit TrkA Extracellular Domain (33-414) (rabbit)
[4] = target: Human TrkA Extracellular Domain Isoform 1 (33-414) (human) (UniProt P04629)
[5] = target: Human TrkA Extracellular Domain Isoform 2 (33-408) (human) (UniProt P04629)
[6] = target: Rat TrkA Extracellular Domain (33-411) (rat) (UniProt P35739)

Amino acid sequences for entries named in this document (tags omitted). A change or cut given only in a name is not applied to a line headed by its entry.
UniProt Q3UFB7: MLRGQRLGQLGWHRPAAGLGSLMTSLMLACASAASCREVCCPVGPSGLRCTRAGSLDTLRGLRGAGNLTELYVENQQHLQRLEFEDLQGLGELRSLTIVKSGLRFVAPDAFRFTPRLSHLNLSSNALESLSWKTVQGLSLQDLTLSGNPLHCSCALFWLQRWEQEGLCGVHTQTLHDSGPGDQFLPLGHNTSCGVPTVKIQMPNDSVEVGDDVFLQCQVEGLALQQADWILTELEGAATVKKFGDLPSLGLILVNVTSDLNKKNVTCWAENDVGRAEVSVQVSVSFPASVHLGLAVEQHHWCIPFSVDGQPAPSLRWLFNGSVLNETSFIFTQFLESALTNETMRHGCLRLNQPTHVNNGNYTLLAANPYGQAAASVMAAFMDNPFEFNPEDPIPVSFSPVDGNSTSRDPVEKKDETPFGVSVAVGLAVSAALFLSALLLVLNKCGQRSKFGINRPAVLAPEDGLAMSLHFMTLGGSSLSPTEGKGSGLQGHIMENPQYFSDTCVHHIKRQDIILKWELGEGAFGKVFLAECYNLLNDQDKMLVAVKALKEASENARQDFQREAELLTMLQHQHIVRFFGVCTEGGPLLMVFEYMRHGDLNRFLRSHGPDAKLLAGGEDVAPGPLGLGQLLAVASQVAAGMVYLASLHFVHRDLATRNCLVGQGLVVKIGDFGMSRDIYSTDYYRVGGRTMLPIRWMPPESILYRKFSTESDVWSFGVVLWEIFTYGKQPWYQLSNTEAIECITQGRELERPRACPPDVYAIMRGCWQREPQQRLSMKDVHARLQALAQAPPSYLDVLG
UniProt P04629: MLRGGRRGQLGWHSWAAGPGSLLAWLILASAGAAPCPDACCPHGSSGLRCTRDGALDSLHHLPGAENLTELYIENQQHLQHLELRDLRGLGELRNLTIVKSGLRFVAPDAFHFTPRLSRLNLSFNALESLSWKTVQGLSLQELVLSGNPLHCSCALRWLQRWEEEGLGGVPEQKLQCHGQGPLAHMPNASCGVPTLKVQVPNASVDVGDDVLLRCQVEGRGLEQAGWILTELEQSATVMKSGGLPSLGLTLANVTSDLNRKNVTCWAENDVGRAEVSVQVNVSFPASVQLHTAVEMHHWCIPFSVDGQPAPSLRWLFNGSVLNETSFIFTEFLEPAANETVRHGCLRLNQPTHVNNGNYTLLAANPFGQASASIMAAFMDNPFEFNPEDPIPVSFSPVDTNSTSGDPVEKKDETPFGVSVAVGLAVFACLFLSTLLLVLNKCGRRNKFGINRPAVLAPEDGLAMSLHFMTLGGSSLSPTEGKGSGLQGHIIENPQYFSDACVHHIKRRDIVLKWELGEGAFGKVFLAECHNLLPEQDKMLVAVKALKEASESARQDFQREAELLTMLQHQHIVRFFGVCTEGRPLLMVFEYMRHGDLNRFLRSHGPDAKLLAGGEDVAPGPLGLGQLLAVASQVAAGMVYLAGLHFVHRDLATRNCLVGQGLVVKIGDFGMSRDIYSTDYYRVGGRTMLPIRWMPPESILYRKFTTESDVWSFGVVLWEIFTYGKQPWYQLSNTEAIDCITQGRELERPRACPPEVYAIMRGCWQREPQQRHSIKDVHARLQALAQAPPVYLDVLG
UniProt P35739: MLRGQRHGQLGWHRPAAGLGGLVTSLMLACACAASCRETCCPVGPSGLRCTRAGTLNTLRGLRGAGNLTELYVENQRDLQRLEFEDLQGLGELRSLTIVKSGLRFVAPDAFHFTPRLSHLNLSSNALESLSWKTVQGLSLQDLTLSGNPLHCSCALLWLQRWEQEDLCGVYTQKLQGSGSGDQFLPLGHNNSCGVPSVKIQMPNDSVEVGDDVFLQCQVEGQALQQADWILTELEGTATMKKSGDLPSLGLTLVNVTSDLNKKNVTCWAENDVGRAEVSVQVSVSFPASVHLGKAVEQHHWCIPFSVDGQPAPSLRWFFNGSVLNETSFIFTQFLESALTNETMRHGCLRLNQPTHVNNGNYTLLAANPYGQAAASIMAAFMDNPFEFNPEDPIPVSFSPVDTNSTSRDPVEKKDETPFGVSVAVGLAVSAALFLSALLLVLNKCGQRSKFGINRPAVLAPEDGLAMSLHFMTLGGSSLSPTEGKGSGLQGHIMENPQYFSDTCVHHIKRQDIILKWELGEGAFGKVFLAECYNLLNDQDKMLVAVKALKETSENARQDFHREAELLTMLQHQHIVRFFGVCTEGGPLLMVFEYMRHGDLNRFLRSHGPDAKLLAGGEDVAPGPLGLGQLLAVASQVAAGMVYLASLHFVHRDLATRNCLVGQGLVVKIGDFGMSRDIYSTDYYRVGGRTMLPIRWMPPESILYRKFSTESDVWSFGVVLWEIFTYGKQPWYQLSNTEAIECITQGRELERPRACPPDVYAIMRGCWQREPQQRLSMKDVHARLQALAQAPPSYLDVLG

Measured: binding

B1: mAb A (antibody, human IgG4 S228P, kappa, F234A L235A, V domains shown)
VH: EVQLVESGGGLVKPGGSLRLSCAASGFTFSGVSINWVRQAPGKGLEWVSSETTSSGTIYYADSVKGRFTISRDNAKNSLYLQMNSLRAEDTAVYYCARSYYYGMDVWGQGTTVTVSS
VL: DIVMTQTPLSSPVTLGQPASISCRSSQSLVHRNGNTYLSWLQQRPGQPPRLLIYKISNRFSGVPDRFSGSGAGTDFTLKISRVEAEDVGVYYCMQARQFPLTFGGGTKVEIKR
binds: [1] | [2] | [3] | [4] | [5] | [6]

Reference: US20190263932A1
